B1: MYBBP1A (protein, UniProt Q9BQG0 1-1328, looked up)
Myb-binding protein 1A: MESRDPAQPMSPGEATQSGARPADRYGLLKHSREFLDFFWDIAKPEQETRLAATEKLLEYLRGRPKGSEMKYALKRLITGLGVGRETARPCYSLALAQLLQSFEDLPLCSILQQIQEKYDLHQVKKAMLRPALFANLFGVLALFQSGRLVKDQEALMKSVKLLQALAQYQNHLQEQPRKALVDILSEVSKATLQEILPEVLKADLNIILSSPEQLELFLLAQQKVPSKLKKLVGSVNLFSDENVPRLVNVLKMAASSVKKDRKLPAIALDLLRLALKEDKFPRFWKEVVEQGLLKMQFWPASYLCFRLLGAALPLLTKEQLHLVMQGDVIRHYGEHVCTAKLPKQFKFAPEMDDYVGTFLEGCQDDPERQLAVLVAFSSVTNQGLPVTPTFWRVVRFLSPPALQGYVAWLRAMFLQPDLDSLVDFSTNNQKKAQDSSLHMPERAVFRLRKWIIFRLVSIVDSLHLEMEEALTEQVARFCLFHSFFVTKKPTSQIPETKHPFSFPLENQAREAVSSAFFSLLQTLSTQFKQAPGQTQGGQPWTYHLVQFADLLLNHSHNVTTVTPFTAQQRQAWDRMLQTLKELEAHSAEARAAAFQHLLLLVGIHLLKSPAESCDLLGDIQTCIRKSLGEKPRRSRTKTIDPQEPPWVEVLVEILLALLAQPSHLMRQVARSVFGHICSHLTPRALQLILDVLNPETSEDENDRVVVTDDSDERRLKGAEDKSEEGEDNRSSESEEESEGEESEEEERDGDVDQGFREQLMTVLQAGKALGGEDSENEEELGDEAMMALDQSLASLFAEQKLRIQARRDEKNKLQKEKALRRDFQIRVLDLVEVLVTKQPENALVLELLEPLLSIIRRSLRSSSSKQEQDLLHKTARIFTHHLCRARRYCHDLGERAGALHAQVERLVQQAGRQPDSPTALYHFNASLYLLRVLKGNTAEGCVHETQEKQKAGTDPSHMPTGPQAASCLDLNLVTRVYSTALSSFLTKRNSPLTVPMFLSLFSRHPVLCQSLLPILVQHITGPVRPRHQACLLLQKTLSMREVRSCFEDPEWKQLMGQVLAKVTENLRVLGEAQTKAQHQQALSSLELLNVLFRTCKHEKLTLDLTVLLGVLQGQQQSLQQGAHSTGSSRLHDLYWQAMKTLGVQRPKLEKKDAKEIPSATQSPISKKRKKKGFLPETKKRKKRKSEDGTPAEDGTPAATGGSQPPSMGRKKRNRTKAKVPAQANGTPTTKSPAPGAPTRSPSTPAKSPKLQKKNQKPSQVNGAPGSPTEPAGQKQHQKALPKKGVLGKSPLSALARKKARLSLVIRSPSLLQSGAKKKAQVRKAGKP
B2: RBBP7 (protein, UniProt Q16576 2-425, looked up)
Histone-binding protein RBBP7: ASKEMFEDTVEERVINEEYKIWKKNTPFLYDLVMTHALQWPSLTVQWLPEVTKPEGKDYALHWLVLGTHTSDEQNHLVVARVHIPNDDAQFDASHCDSDKGEFGGFGSVTGKIECEIKINHEGEVNRARYMPQNPHIIATKTPSSDVLVFDYTKHPAKPDPSGECNPDLRLRGHQKEGYGLSWNSNLSGHLLSASDDHTVCLWDINAGPKEGKIVDAKAIFTGHSAVVEDVAWHLLHESLFGSVADDQKLMIWDTRSNTTSKPSHLVDAHTAEVNCLSFNPYSEFILATGSADKTVALWDLRNLKLKLHTFESHKDEIFQVHWSPHNETILASSGTDRRLNVWDLSKIGEEQSAEDAEDGPPELLFIHGGHTAKISDFSWNPNEPWVICSVSEDNIMQIWQMAENIYNDEESDVTTSELEGQGS
B3: TNFAIP2 (protein, UniProt Q03169 1-654, looked up)
Tumor necrosis factor …: MSEASSEDLVPPLEAGAAPYREEEEAAKKKKEKKKKSKGLANVFCVFTKGKKKKGQPSSAEPEDAAGSRQGLDGPPPTVEELKAALERGQLEAARPLLALERELAAAAAAGGVSEEELVRRQSKVEALYELLRDQVLGVLRRPLEAPPERLRQALAVVAEQEREDRQAAAAGPGTSGLAATRPRRWLQLWRRGVAEAAEERMGQRPAAGAEVPESVFLHLGRTMKEDLEAVVERLKPLFPAEFGVVAAYAESYHQHFAAHLAAVAQFELCERDTYMLLLWVQNLYPNDIINSPKLVGELQGMGLGSLLPPRQIRLLEATFLSSEAANVRELMDRALELEARRWAEDVPPQRLDGHCHSELAIDIIQITSQAQAKAESITLDLGSQIKRVLLVELPAFLRSYQRAFNEFLERGKQLTNYRANVIANINNCLSFRMSMEQNWQVPQDTLSLLLGPLGELKSHGFDTLLQNLHEDLKPLFKRFTHTRWAAPVETLENIIATVDTRLPEFSELQGCFREELMEALHLHLVKEYIIQLSKGRLVLKTAEQQQQLAGYILANADTIQHFCTQHGSPATWLQPALPTLAEIIRLQDPSAIKIEVATYATCYPDFSKGHLSAILAIKGNLSNSEVKRIRSILDVSMGAQEPSRPLFSLIKVG
B4: PICALM (protein, UniProt Q13492 2-652, looked up)
Phosphatidylinositol-binding …: SGQSLTDRITAAQHSVTGSAVSKTVCKATTHEIMGPKKKHLDYLIQCTNEMNVNIPQLADSLFERTTNSSWVVVFKSLITTHHLMVYGNERFIQYLASRNTLFNLSNFLDKSGLQGYDMSTFIRRYSRYLNEKAVSYRQVAFDFTKVKRGADGVMRTMNTEKLLKTVPIIQNQMDALLDFNVNSNELTNGVINAAFMLLFKDAIRLFAAYNEGIINLLEKYFDMKKNQCKEGLDIYKKFLTRMTRISEFLKVAEQVGIDRGDIPDLSQAPSSLLDALEQHLASLEGKKIKDSTAASRATTLSNAVSSLASTGLSLTKVDEREKQAALEEEQARLKALKEQRLKELAKKPHTSLTTAASPVSTSAGGIMTAPAIDIFSTPSSSNSTSKLPNDLLDLQQPTFHPSVHPMSTASQVASTWGDPFSATVDAVDDAIPSLNPFLTKSSGDVHLSISSDVSTFTTRTPTHEMFVGFTPSPVAQPHPSAGLNVDFESVFGNKSTNVIVDSGGFDELGGLLKPTVASQNQNLPVAKLPPSKLVSDDLDSSLANLVGNLGIGNGTTKNDVNWSQPGEKKLTGGSNWQPKVAPTTAWNAATMAPPVMAYPATTPTGMIGYGIPPQMGSVPVMTQPTLIYSQPVMRPPNPFGPVSGAQIQFM
B5: MCM5 (protein, UniProt P33992 2-734, looked up)
DNA replication licensing …: SGFDDPGIFYSDSFGGDAQADEGQARKSQLQRRFKEFLRQYRVGTDRTGFTFKYRDELKRHYNLGEYWIEVEMEDLASFDEDLADYLYKQPAEHLQLLEEAAKEVADEVTRPRPSGEEVLQDIQVMLKSDASPSSIRSLKSDMMSHLVKIPGIIIAASAVRAKATRISIQCRSCRNTLTNIAMRPGLEGYALPRKCNTDQAGRPKCPLDPYFIMPDKCKCVDFQTLKLQELPDAVPHGEMPRHMQLYCDRYLCDKVVPGNRVTIMGIYSIKKFGLTTSRGRDRVGVGIRSSYIRVLGIQVDTDGSGRSFAGAVSPQEEEEFRRLAALPNVYEVISKSIAPSIFGGTDMKKAIACLLFGGSRKRLPDGLTRRGDINLLMLGDPGTAKSQLLKFVEKCSPIGVYTSGKGSSAAGLTASVMRDPSSRNFIMEGGAMVLADGGVVCIDEFDKMREDDRVAIHEAMEQQTISIAKAGITTTLNSRCSVLAAANSVFGRWDETKGEDNIDFMPTILSRFDMIFIVKDEHNEERDVMLAKHVITLHVSALTQTQAVEGEIDLAKLKKFIAYCRVKCGPRLSAEAAEKLKNRYIIMRSGARQHERDSDRRSSIPITVRQLEAIVRIAEALSKMKLQPFATEADVEEALRLFQVSTLDAALSGTLSGVEGFTSQEDQEMLSRIEKQLKRRFAIGSQVSEHSIIKDFTKQKYPEHAIHKVLQLMLRRGEIQHRMQRKVLYRLK
B6: TRIM28 (protein, UniProt Q13263 2-835, looked up)
Transcription intermediary …: AASAAAASAAAASAASGSPGPGEGSAGGEKRSTAPSAAASASASAAASSPAGGGAEALELLEHCGVCRERLRPEREPRLLPCLHSACSACLGPAAPAAANSSGDGGAAGDGTVVDCPVCKQQCFSKDIVENYFMRDSGSKAATDAQDANQCCTSCEDNAPATSYCVECSEPLCETCVEAHQRVKYTKDHTVRSTGPAKSRDGERTVYCNVHKHEPLVLFCESCDTLTCRDCQLNAHKDHQYQFLEDAVRNQRKLLASLVKRLGDKHATLQKSTKEVRSSIRQVSDVQKRVQVDVKMAILQIMKELNKRGRVLVNDAQKVTEGQQERLERQHWTMTKIQKHQEHILRFASWALESDNNTALLLSKKLIYFQLHRALKMIVDPVEPHGEMKFQWDLNAWTKSAEAFGKIVAERPGTNSTGPAPMAPPRAPGPLSKQGSGSSQPMEVQEGYGFGSGDDPYSSAEPHVSGVKRSRSGEGEVSGLMRKVPRVSLERLDLDLTADSQPPVFKVFPGSTTEDYNLIVIERGAAAAATGQPGTAPAGTPGAPPLAGMAIVKEEETEAAIGAPPTATEGPETKPVLMALAEGPGAEGPRLASPSGSTSSGLEVVAPEGTSAPGGGPGTLDDSATICRVCQKPGDLVMCNQCEFCFHLDCHLPALQDVPGEEWSCSLCHVLPDLKEEDGSLSLDGADSTGVVAKLSPANQRKCERVLLALFCHEPCRPLHQLATDSTFSLDQPGGTLDLTLIRARLQEKLSPPYSSPQEFAQDVGRMFKQFNKLTEDKADVQSIIGLQRFFETRMNEAFGDTKFSAVLVEPPPMSLPGAGLSSQELSGGPGDGP
B7: MIF (protein, UniProt P14174 2-115, looked up)
Macrophage migration …: PMFIVNTNVPRASVPDGFLSELTQQLAQATGKPPQYIAVHVVPDQLMAFGGSSEPCALCSLHSIGKIGGAQNRSYSKLLCGLLAERLRISPDRVYINYYDMNAANVGWNNSTFA
B8: PA2G4 (protein, UniProt Q9UQ80 2-394, looked up)
Proliferation-associated …: SGEDEQQEQTIAEDLVVTKYKMGGDIANRVLRSLVEASSSGVSVLSLCEKGDAMIMEETGKIFKKEKEMKKGIAFPTSISVNNCVCHFSPLKSDQDYILKEGDLVKIDLGVHVDGFIANVAHTFVVDVAQGTQVTGRKADVIKAAHLCAEAALRLVKPGNQNTQVTEAWNKVAHSFNCTPIEGMLSHQLKQHVIDGEKTIIQNPTDQQKKDHEKAEFEVHEVYAVDVLVSSGEGKAKDAGQRTTIYKRDPSKQYGLKMKTSRAFFSEVERRFDAMPFTLRAFEDEKKARMGVVECAKHELLQPFNVLYEKEGEFVAQFKFTVLLMPNGPMRITSGPFEPDLYKSEMEVQDAELKALLQSSASRKTQKKKKKKASKTAENATSGETLEENEAGD

Columns and labels:
[1] = test system: Hsp90 complexes in Mia-PaCa-2 cell extract; experiment: Nano-LC-MS/MS of PU-beads pull-downs; format: binding, human; settings: protein identified in PU-beads pull-down of Mia-Paca 2 extract; QSTAR-Elite QTof MS
Procedure, shortened: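 Lysates pre-cleared overnight at 4 °C with control beads underwent PU-bead pull-down; bound proteins were SDS-eluted, gel-separated, digested and analyzed by nano-LC-MS/MS on a QTof. Identifications used significance p<0.05, 0.4 Da tolerances and one missed cleavage; unique peptide (spectral) counts and sequence coverage were reported.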

[2] = test system: Hsp90 complexes in K562 cell extract; experiment: Nano-LC-MS/MS of PU-beads pull-downs; format: binding; settings: protein identified in PU-beads pull-down of K562 extract, QSTAR-Elite QTof MS
Procedure, shortened: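 Lysates pre-cleared overnight at 4 °C with control beads, then pulled down with PU-beads or control beads; eluted proteins (2% SDS boil) gel-separated and analysed by nano LC-MS/MS on a QTof. Mascot identification (p<0.05), spectral counts and sequence coverage evaluated in Scaffold.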

Molecule	Number of Assigned Spectra, Mia-Paca 2 [1]	Number of Assigned Spectra, K562 Prep 1 [2]	Number of Assigned Spectra, K562 Prep 2 [2]
B1	29	4	4
B2	3	5	4
B3	0	2	1
B4	0	1	7
B5	2	24	18
B6	4	16	14
B7	25	3	0
B8	14	3	8
